Measured values reported in doi:10.1101/2024.10.25.620017.
No constants are given. Whether binding was seen depends on the method and setting. Binding seen in cells or lysates may run through a third protein. Here binding means that the protein was enriched with, or labelled near, the bait; the list need not be complete.

Chains of the proteins cited; added tags and fusions are not shown.
UniProt P62960: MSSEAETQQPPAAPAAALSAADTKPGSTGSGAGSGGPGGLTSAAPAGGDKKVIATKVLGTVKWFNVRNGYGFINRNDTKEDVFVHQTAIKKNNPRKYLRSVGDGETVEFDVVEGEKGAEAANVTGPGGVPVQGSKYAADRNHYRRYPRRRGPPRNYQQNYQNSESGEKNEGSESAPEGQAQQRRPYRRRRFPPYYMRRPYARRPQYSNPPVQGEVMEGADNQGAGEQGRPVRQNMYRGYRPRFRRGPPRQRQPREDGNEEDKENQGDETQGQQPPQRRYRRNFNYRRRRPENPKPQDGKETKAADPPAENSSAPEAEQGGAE
UniProt P53566: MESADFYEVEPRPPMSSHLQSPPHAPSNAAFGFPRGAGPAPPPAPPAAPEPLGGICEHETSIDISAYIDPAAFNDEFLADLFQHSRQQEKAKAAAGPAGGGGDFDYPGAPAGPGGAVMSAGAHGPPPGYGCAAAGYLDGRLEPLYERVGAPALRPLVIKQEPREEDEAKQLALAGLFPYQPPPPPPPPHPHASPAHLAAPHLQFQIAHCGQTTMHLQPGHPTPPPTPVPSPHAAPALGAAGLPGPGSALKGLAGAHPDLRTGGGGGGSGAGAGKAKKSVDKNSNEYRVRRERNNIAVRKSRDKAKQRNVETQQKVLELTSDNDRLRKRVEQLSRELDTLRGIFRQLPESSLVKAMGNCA
UniProt P28033: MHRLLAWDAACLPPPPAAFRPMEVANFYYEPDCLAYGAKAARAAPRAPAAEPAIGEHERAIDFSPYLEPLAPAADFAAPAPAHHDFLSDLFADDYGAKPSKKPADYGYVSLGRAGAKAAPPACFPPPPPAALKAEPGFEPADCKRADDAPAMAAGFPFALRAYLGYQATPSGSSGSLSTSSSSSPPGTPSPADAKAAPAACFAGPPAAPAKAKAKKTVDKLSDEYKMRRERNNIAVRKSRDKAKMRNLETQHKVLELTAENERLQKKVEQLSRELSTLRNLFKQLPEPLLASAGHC
UniProt Q61103: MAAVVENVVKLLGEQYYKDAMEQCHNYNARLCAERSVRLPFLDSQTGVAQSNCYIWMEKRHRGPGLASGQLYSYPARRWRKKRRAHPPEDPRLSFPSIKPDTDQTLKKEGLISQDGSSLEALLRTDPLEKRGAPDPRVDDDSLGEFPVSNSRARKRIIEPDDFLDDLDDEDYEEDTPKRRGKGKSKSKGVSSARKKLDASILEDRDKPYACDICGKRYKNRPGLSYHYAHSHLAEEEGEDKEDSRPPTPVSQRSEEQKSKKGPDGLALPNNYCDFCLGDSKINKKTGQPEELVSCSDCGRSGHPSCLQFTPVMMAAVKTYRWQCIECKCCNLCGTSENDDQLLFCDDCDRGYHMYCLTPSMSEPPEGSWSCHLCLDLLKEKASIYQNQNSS

molecular target: Y box-binding protein 1 (YBX1) (mouse (endogenous in mouse liver)) (UniProt P62960); experiment: affinity purification with mass spectrometry

binding	Substance
binds	CCAAT-enhancer-binding protein alpha (C/EBPα) (from UniProt P53566 1-359)
binds	Cebpb (from UniProt P28033 1-296)
binds	DPF2 (from UniProt Q61103 1-391)
